In the supplement of paper PMC4604168 (melanoma cell lines):
The other results are listed elsewhere or left out. Repeats are few or missing, and single values can be far off.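 Imaging used 1,536-well plates; nuclei positive for cleaved PARP by antibody were divided by total DNA-stained nuclei to yield the apoptosis fraction. Doses for screening kept most cells viable, and cell lines differ markedly in resting and induced cleaved-PARP levels.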

test system: A375; test: cleaved PARP positive nuclei fraction relative to DMSO control; melanoma cells; higher = more apoptosis; conditions: library dose: low library concentration; 72 h

| SMILES | cleaved PARP positive nuclei fraction |
| --- | --- |
| N.N.[Cl][Pt][Cl] [cisplatin] + Cn1nnc2c(C(N)=O)ncn2c1=O [temozolomide] (first compound 1.6 µM, partner dose 2 µM) | 59.9% |
| Cn1cc(C2=C(c3cn(C4CCN(Cc5ccccn5)CC4)c4ccccc34)C(=O)NC2=O)c2ccccc21 [Enzastaurin] + C=CCNC1=C2C[C@@H](C)C[C@H](OC)[C@H](O)[C@@H](C)/C=C(\C)[C@H](OC(N)=O)[C@@H](OC)/C=C\C=C(/C)C(=O)NC(=CC1=O)C2=O [Tanespimycin] (first compound 0.8 µM, partner dose 0.002 µM) | 163% |
| CS(=O)(=O)c1ccc(C(=O)Nc2ccc(Cl)c(-c3ccccn3)c2)c(Cl)c1 [vismodegib] + C[As](C)SC[C@H](NC(=O)CC[C@H](N)C(=O)O)C(=O)NCC(=O)O [Darinaparsin] (first compound 1 µM, partner dose 0.4 µM) | 149% |
| CS(=O)(=O)c1ccc(C(=O)Nc2ccc(Cl)c(-c3ccccn3)c2)c(Cl)c1 [vismodegib] + N.N.[Cl][Pt][Cl] [cisplatin] (first compound 1 µM, partner dose 1.6 µM) | 216% |
| CCCS(=O)(=O)Nc1ccc(F)c(C(=O)c2c[nH]c3ncc(Cl)cc23)c1F + C[As](C)SC[C@H](NC(=O)CC[C@H](N)C(=O)O)C(=O)NCC(=O)O [Darinaparsin] (first compound 0.08 µM, partner dose 0.4 µM) | 131% |
| C[C@]12O[C@H](C[C@]1(O)CO)n1c3ccccc3c3c4c(c5c6ccccc6n2c5c31)CNC4=O [Lestaurtinib] + C=CCNC1=C2C[C@@H](C)C[C@H](OC)[C@H](O)[C@@H](C)/C=C(\C)[C@H](OC(N)=O)[C@@H](OC)/C=C\C=C(/C)C(=O)NC(=CC1=O)C2=O [Tanespimycin] (first compound 0.004 µM, partner dose 0.002 µM) | 104% |
| C[C@]12O[C@H](C[C@]1(O)CO)n1c3ccccc3c3c4c(c5c6ccccc6n2c5c31)CNC4=O [Lestaurtinib] + O=C(O)[C@@H]1[O][Sb](=[O])([O][Sb]2(=[O])[O][C@H]([C@H](O)CO)[C@H](O)[C@H](C(=O)O)[O]2)[O][C@H]([C@H](O)CO)[C@@H]1O [stibogluconate] (first compound 0.004 µM, partner dose 2 µM) | 57.7% |
| Cn1cc(C2=C(c3cn(C4CCN(Cc5ccccn5)CC4)c4ccccc34)C(=O)NC2=O)c2ccccc21 [Enzastaurin] + C=C(c1ccc(C(=O)O)cc1)c1cc2c(cc1C)C(C)(C)CCC2(C)C [Bexarotene] (first compound 0.8 µM, partner dose 2 µM) | 209% |

Rewritten with tabs: entries from further up.
SMILES	cleaved PARP positive nuclei fraction
C[C@]12O[C@H](C[C@]1(O)CO)n1c3ccccc3c3c4c(c5c6ccccc6n2c5c31)CNC4=O [Lestaurtinib] + C=CCNC1=C2C[C@@H](C)C[C@H](OC)[C@H](O)[C@@H](C)/C=C(\C)[C@H](OC(N)=O)[C@@H](OC)/C=C\C=C(/C)C(=O)NC(=CC1=O)C2=O [Tanespimycin] (first compound 0.004 µM, partner dose 0.002 µM)	104%
C[C@]12O[C@H](C[C@]1(O)CO)n1c3ccccc3c3c4c(c5c6ccccc6n2c5c31)CNC4=O [Lestaurtinib] + O=C(O)[C@@H]1[O][Sb](=[O])([O][Sb]2(=[O])[O][C@H]([C@H](O)CO)[C@H](O)[C@H](C(=O)O)[O]2)[O][C@H]([C@H](O)CO)[C@@H]1O [stibogluconate] (first compound 0.004 µM, partner dose 2 µM)	57.7%

test system: C32; test: as above; conditions: library dose: low library concentration; 72 h

| SMILES | cleaved PARP positive nuclei fraction |
| --- | --- |
| CCCCCCCCCCCCCCCCCCOP(=O)([O-])OC1CC[N+](C)(C)CC1 [Perifosine] + C[As](C)SC[C@H](NC(=O)CC[C@H](N)C(=O)O)C(=O)NCC(=O)O [Darinaparsin] (first compound 0.4 µM, partner dose 0.4 µM) | 85% |
| CC(=O)O[C@@]12CO[C@@H]1C[C@H](O)[C@@]1(C)C(=O)[C@H](O)C3=C(C)[C@@H](OC(=O)[C@H](O)[C@@H](NC(=O)OC(C)(C)C)c4ccccc4)C[C@@](O)([C@@H](OC(=O)c4ccccc4)[C@H]21)C3(C)C [Docetaxel] + N.N.[Cl][Pt][Cl] [cisplatin] (first compound 0.0001 µM, partner dose 1.6 µM) | 84.8% |
| N.N.[Cl][Pt][Cl] [cisplatin] + C#Cc1cccc(Nc2ncnc3cc(OCCOC)c(OCCOC)cc23)c1 [erlotinib] (first compound 1.6 µM, partner dose 0.8 µM) | 165% |
| C[As](C)SC[C@H](NC(=O)CC[C@H](N)C(=O)O)C(=O)NCC(=O)O [Darinaparsin] + Cc1nc(Nc2ncc(C(=O)Nc3c(C)cccc3Cl)s2)cc(N2CCN(CCO)CC2)n1 [dasatanib] (first compound 0.4 µM, partner dose 0.004 µM) | 95.5% |
| Cn1sc(=O)n(Cc2ccccc2)c1=O + C[As](C)SC[C@H](NC(=O)CC[C@H](N)C(=O)O)C(=O)NCC(=O)O [Darinaparsin] (first compound 0.4 µM, partner dose 0.4 µM) | 75.6% |
| C[C@]12O[C@H](C[C@]1(O)CO)n1c3ccccc3c3c4c(c5c6ccccc6n2c5c31)CNC4=O [Lestaurtinib] + C[C@]1(c2nc3c(C(N)=O)cccc3[nH]2)CCCN1 [Veliparib] (first compound 0.004 µM, partner dose 1.4 µM) | 85.9% |
| Cn1cc(C2=C(c3cn(C4CCN(Cc5ccccn5)CC4)c4ccccc34)C(=O)NC2=O)c2ccccc21 [Enzastaurin] + CN1CCN(c2ccc3nc(-c4c(N)c5c(F)cccc5[nH]c4=O)[nH]c3c2)CC1 [Dovitinib] (first compound 0.8 µM, partner dose 0.1 µM) | 73.5% |
| CCCCCCCCc1ccc(CCC(N)(CO)CO)cc1 [fingolimod] + N.N.[Cl][Pt][Cl] [cisplatin] (first compound 2 µM, partner dose 1.6 µM) | 73.4% |
| Cn1cc(C2=C(c3cn(C4CCN(Cc5ccccn5)CC4)c4ccccc34)C(=O)NC2=O)c2ccccc21 [Enzastaurin] + CCCS(=O)(=O)Nc1ccc(F)c(C(=O)c2c[nH]c3ncc(Cl)cc23)c1F [PLX4720] (first compound 0.8 µM, partner dose 0.08 µM) | 94.2% |
| CC1(C)CCC(c2ccc(Cl)cc2)=C(CN2CCN(c3ccc(C(=O)NS(=O)(=O)c4ccc(N[C@H](CCN5CCOCC5)CSc5ccccc5)c(S(=O)(=O)C(F)(F)F)c4)cc3)CC2)C1 + N.N.[Cl][Pt][Cl] [cisplatin] (first compound 0.4 µM, partner dose 1.6 µM) | 118% |
| Cn1cc(C2=C(c3cn(C4CCN(Cc5ccccn5)CC4)c4ccccc34)C(=O)NC2=O)c2ccccc21 [Enzastaurin] + Nc1ccn([C@@H]2O[C@H](CO)[C@@H](O)C2(F)F)c(=O)n1 [gemcitabine] (first compound 0.8 µM, partner dose 0.0004 µM) | 71.4% |
| N.N.[Cl][Pt][Cl] [cisplatin] + Nc1ncn([C@H]2C[C@H](O)[C@@H](CO)O2)c(=O)n1 [decitabine] (first compound 1.6 µM, partner dose 0.1 µM) | 85.8% |
| Cn1sc(=O)n(Cc2ccccc2)c1=O + C[C@]12O[C@H](C[C@]1(O)CO)n1c3ccccc3c3c4c(c5c6ccccc6n2c5c31)CNC4=O [Lestaurtinib] (first compound 0.4 µM, partner dose 0.004 µM) | 67.9% |
| Cn1cc(C2=C(c3cn(C4CCN(Cc5ccccn5)CC4)c4ccccc34)C(=O)NC2=O)c2ccccc21 [Enzastaurin] + COCC[n+]1c2c(n(Cc3cnccn3)c1C)C(=O)c1ccccc1C2=O [YM155] (first compound 0.8 µM, partner dose 0.0004 µM) | 158% |
| C[C@]1(O)C[C@@H](c2nc(-c3ccc4ccc(-c5ccccc5)nc4c3)c3c(N)nccn32)C1 + N.N.[Cl][Pt][Cl] [cisplatin] (first compound 0.4 µM, partner dose 1.6 µM) | 81.9% |
| C[C@]12O[C@H](C[C@]1(O)CO)n1c3ccccc3c3c4c(c5c6ccccc6n2c5c31)CNC4=O [Lestaurtinib] + CC(C)C[C@H](NC(=O)[C@H](Cc1ccccc1)NC(=O)c1cnccn1)B(O)O [Bortezomib] (first compound 0.004 µM, partner dose 0.001 µM) | 68.4% |
| COc1ccc(C2=N[C@@H](c3ccc(Cl)cc3)[C@@H](c3ccc(Cl)cc3)N2C(=O)N2CCNC(=O)C2)c(OC(C)C)c1 [Nutlin-3] + C[C@]12O[C@H](C[C@]1(O)CO)n1c3ccccc3c3c4c(c5c6ccccc6n2c5c31)CNC4=O [Lestaurtinib] (first compound 0.1 µM, partner dose 0.004 µM) | 79.1% |
| C=CCNC1=C2C[C@@H](C)C[C@H](OC)[C@H](O)[C@@H](C)/C=C(\C)[C@H](OC(N)=O)[C@@H](OC)/C=C\C=C(/C)C(=O)NC(=CC1=O)C2=O [Tanespimycin] + C[As](C)SC[C@H](NC(=O)CC[C@H](N)C(=O)O)C(=O)NCC(=O)O [Darinaparsin] (first compound 0.002 µM, partner dose 0.4 µM) | 172% |
| COc1ccc(C2=N[C@@H](c3ccc(Cl)cc3)[C@@H](c3ccc(Cl)cc3)N2C(=O)N2CCNC(=O)C2)c(OC(C)C)c1 [Nutlin-3] + C[As](C)SC[C@H](NC(=O)CC[C@H](N)C(=O)O)C(=O)NCC(=O)O [Darinaparsin] (first compound 0.1 µM, partner dose 0.4 µM) | 147% |
| Cn1cc(C2=C(c3cn(C4CCN(Cc5ccccn5)CC4)c4ccccc34)C(=O)NC2=O)c2ccccc21 [Enzastaurin] + CNC(=O)c1cc(Oc2ccc(NC(=O)Nc3ccc(Cl)c(C(F)(F)F)c3)cc2)ccn1 [sorafenib] (first compound 0.8 µM, partner dose 0.4 µM) | 78.9% |
| C[C@]12O[C@H](C[C@]1(O)CO)n1c3ccccc3c3c4c(c5c6ccccc6n2c5c31)CNC4=O [Lestaurtinib] + CO[C@H]1C[C@@H]2CC[C@@H](C)[C@@](O)(O2)C(=O)C(=O)N2CCCC[C@H]2C(=O)O[C@H]([C@H](C)C[C@@H]2CC[C@@H](OCCO)[C@H](OC)C2)CC(=O)[C@H](C)/C=C(\C)[C@@H](O)[C@@H](OC)C(=O)[C@H](C)C[C@H](C)/C=C/C=C/C=C/1C [everolimus] (first compound 0.004 µM, partner dose 0.02 µM) | 87.6% |
